Laboratory results reported in PMC10006232.
Read-outs that look alike come from different tables or passages of the source. Results are given in words; binding and its absence hold for the method and conditions named. For part of these data: Binding seen in cells or lysates may run through a third protein. Some entries that bind do so weakly or less than the wild type. For part of these data: Tags and fused reporters may be left off the sequences shown. One block for each molecule: values may come before it.

The chains behind the UniProt entries cited, without tags or fusion partners.
UniProt P14618: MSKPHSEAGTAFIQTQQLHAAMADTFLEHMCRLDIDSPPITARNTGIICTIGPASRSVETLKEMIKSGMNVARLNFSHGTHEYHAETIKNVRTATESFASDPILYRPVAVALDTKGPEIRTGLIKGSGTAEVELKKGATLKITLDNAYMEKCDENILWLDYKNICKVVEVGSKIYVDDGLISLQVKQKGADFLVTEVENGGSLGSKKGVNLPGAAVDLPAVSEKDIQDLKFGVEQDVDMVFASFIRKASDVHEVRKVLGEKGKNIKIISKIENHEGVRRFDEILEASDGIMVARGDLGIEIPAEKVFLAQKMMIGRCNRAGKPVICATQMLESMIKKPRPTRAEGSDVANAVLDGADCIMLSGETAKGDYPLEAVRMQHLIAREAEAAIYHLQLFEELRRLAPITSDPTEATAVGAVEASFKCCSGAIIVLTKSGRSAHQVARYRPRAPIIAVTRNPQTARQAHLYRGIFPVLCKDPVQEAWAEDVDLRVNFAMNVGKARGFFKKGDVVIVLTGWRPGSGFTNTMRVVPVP
UniProt Q09472: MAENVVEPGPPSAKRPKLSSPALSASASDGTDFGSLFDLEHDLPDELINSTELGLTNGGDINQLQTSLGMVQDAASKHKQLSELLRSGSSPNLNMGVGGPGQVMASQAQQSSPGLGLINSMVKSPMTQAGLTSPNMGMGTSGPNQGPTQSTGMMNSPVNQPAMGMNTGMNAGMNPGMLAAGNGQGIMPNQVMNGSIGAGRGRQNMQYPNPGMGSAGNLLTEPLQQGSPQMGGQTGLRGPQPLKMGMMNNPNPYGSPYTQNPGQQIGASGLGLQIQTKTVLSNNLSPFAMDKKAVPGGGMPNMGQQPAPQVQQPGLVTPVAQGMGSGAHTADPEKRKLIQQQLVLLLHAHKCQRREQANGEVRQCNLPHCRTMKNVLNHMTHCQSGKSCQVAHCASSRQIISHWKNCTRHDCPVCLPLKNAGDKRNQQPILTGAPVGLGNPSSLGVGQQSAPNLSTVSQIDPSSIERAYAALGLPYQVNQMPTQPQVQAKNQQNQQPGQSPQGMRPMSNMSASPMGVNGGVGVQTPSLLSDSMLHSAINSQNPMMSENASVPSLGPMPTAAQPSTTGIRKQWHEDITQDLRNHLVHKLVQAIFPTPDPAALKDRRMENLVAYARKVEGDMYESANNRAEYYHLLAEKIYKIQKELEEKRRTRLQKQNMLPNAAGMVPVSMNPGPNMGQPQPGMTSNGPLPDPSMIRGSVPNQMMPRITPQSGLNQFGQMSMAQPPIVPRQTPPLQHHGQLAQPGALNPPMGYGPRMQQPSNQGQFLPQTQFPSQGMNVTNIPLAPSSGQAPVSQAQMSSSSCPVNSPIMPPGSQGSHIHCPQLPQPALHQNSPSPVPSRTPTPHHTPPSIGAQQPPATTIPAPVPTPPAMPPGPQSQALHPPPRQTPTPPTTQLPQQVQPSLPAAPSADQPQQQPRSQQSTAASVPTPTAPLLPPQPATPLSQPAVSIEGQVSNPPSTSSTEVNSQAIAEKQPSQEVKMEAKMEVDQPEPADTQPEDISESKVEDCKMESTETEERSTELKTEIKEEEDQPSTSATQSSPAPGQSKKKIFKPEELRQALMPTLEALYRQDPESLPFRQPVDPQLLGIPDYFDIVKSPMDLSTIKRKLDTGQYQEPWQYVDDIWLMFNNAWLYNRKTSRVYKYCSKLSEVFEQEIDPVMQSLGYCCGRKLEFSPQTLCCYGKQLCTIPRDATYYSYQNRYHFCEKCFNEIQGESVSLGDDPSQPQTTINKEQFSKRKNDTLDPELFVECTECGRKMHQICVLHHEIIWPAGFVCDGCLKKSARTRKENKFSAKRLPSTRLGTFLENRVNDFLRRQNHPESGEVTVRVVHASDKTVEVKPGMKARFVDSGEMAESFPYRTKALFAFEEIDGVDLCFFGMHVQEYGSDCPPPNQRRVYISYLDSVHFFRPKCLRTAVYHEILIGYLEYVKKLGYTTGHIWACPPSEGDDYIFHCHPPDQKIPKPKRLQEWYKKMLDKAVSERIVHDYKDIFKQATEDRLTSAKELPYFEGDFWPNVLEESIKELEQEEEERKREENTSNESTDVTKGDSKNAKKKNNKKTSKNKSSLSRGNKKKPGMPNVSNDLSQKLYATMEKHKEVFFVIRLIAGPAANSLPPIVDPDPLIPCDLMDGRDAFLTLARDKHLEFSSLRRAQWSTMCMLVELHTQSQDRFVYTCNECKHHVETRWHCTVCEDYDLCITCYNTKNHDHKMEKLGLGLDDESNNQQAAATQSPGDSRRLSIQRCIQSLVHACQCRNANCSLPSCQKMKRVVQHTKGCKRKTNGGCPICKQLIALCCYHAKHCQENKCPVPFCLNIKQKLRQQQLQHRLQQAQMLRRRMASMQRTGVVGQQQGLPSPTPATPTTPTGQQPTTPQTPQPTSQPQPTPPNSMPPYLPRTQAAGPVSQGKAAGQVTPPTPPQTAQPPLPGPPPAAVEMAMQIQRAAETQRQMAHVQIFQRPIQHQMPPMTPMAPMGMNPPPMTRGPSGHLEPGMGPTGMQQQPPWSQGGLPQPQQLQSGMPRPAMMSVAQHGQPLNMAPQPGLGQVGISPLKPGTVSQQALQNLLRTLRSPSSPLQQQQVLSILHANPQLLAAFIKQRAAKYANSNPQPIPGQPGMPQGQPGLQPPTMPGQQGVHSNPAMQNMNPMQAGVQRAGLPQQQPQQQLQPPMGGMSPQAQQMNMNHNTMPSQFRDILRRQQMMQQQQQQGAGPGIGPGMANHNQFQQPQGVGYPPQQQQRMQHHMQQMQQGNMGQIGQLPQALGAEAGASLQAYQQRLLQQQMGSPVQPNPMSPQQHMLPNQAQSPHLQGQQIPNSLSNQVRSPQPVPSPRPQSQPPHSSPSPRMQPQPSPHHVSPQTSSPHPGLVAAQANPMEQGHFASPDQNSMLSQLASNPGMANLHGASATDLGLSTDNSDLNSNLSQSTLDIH
UniProt Q92831: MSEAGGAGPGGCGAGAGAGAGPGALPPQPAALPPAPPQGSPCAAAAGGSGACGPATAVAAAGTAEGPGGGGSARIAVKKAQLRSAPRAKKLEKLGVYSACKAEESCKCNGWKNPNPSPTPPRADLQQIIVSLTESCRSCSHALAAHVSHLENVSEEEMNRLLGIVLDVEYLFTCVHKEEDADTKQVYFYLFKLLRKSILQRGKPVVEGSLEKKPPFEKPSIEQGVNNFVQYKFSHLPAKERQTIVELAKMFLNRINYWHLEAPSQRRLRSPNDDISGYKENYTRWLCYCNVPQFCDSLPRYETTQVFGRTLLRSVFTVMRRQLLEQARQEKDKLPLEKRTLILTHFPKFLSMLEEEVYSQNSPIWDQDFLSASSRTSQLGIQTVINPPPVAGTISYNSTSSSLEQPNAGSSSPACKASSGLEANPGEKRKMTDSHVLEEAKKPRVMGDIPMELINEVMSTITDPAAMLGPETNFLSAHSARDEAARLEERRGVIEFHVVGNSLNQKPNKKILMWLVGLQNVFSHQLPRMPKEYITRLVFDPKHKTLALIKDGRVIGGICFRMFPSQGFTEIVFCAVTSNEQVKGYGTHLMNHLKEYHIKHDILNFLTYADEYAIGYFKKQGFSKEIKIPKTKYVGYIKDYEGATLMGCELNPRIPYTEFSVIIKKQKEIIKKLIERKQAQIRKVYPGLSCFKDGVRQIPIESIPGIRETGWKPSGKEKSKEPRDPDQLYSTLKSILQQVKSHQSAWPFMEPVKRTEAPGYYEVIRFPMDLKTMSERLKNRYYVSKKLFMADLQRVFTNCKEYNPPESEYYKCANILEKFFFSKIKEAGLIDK

Assays:
[1] = target: pyruvate kinase M2 (PKM2), endogenous in HUVECs (human (endogenous in HUVEC)) (UniProt P14618); assay: co-IP; endogenous PKM2 or PHGDH immunoprecipitated from HUVEC lysates (anti-PKM2, anti-PHGDH) in buffer A (50 mM Tris pH7.4, 150 mM NaCl, 1 mM EDTA, 6 mM sodium deoxycholate, 1% NP-40), 4 °C overnight, immunoblots; also from cells with PHGDH overexpression, PHGDH knockdown or p300 knockdown
[2] = target: p300 immobilized on agarose beads from HeLa cells (human (endogenous in HeLa)) (UniProt Q09472); assay: co-IP; in vitro: p300 immobilized on agarose beads from HeLa cells with anti-p300, incubated with purified recombinant PKM2 in the presence of increasing amount of purified recombinant PHGDH; both purified
[3] = target: T1, purified recombinant GST-PHGDH (UniProt O43175); assay: pull-down; GST-PHGDH pre-bound to glutathione beads, incubated with purified His-PKM2 in buffer C (50 mM Tris pH7.4, 150 mM NaCl, 1 mM EDTA, 6 mM sodium deoxycholate, 1% NP-40), 4 °C overnight; called in vitro Co-IP in the text; both purified
T1 sequence: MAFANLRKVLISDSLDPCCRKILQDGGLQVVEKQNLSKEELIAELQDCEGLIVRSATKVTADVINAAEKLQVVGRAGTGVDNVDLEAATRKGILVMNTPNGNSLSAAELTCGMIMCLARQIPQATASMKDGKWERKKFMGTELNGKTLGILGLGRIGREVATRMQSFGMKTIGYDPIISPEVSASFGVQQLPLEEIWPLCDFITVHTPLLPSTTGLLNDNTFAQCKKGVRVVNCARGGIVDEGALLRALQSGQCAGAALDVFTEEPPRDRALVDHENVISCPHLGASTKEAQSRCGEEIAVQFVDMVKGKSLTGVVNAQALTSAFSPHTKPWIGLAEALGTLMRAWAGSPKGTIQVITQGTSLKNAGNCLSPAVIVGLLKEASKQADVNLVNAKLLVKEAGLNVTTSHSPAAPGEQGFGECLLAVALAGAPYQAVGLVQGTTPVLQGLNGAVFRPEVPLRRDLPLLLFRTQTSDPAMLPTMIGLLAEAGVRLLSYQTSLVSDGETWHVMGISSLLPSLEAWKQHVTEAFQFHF

[4] = target: FLAG-PCAF purified from HeLa cells (UniProt Q92831); assay: co-IP; in vitro: FLAG-PCAF purified from HeLa cells incubated with purified recombinant His-PKM2 in the presence of increasing amount of purified recombinant PHGDH, immunoprecipitated with anti-FLAG beads; both purified
[5] = target: T2, phosphoglycerate dehydrogenase (PHGDH), endogenous in HUVECs (human (endogenous in HUVEC)) (UniProt O43175); assay: co-IP; endogenous PKM2 or PHGDH immunoprecipitated from HUVEC lysates (anti-PKM2, anti-PHGDH) in buffer A (50 mM Tris pH7.4, 150 mM NaCl, 1 mM EDTA, 6 mM sodium deoxycholate, 1% NP-40), 4 °C overnight, immunoblots; also from cells with PHGDH overexpression, PHGDH knockdown or p300 knockdown
T2 sequence: T1 sequence

[6] = target: pyruvate kinase M2 (PKM2), endogenous in HUVECs (human (endogenous in HUVEC)) (UniProt P14618); assay: as above; remark: listed apart in the source

binding [2]: binds
binding [3]: binds
binding [4]: binds
Molecule: purified recombinant His-PKM2 (from UniProt P14618 1-531)

binding [5]: binds
binding [6]: binds
B1: phosphoserine aminotransferase 1 (PSAT1), endogenous in HUVECs (protein, UniProt Q9Y617 1-370)
chain: MDAPRQVVNFGPGPAKLPHSVLLEIQKELLDYKGVGISVLEMSHRSSDFAKIINNTENLVRELLAVPDNYKVIFLQGGGCGQFSAVPLNLIGLKAGRCADYVVTGAWSAKAAEEAKKFGTINIVHPKLGSYTKIPDPSTWNLNPDASYVYYCANETVHGVEFDFIPDVKGAVLVCDMSSNFLSKPVDVSKFGVIFAGAQKNVGSAGVTVVIVRDDLLGFALRECPSVLEYKVQAGNSSLYNTPPCFSIYVMGLVLEWIKNNGGAAAMEKLSSIKSQTIYEIIDNSQGFYVCPVEPQNRSKMNIPFRIGNAKGDDALEKRFLDKALELNMLSLKGHRSVGGIRASLYNAVTIEDVQKLAAFMKKFLEMHQL

Second part, the molecule before the results:

Molecule: acetyltransferase p300, endogenous in HUVECs (from UniProt Q09472 1-2414)
binding [1]: binds

Molecule: PCAF (p300/CBP-associated factor), endogenous (from UniProt Q92831 1-832)
binding [1]: binds

B2: phosphoserine phosphatase (PSPH), endogenous in HUVECs (protein, UniProt P78330 1-225)
chain: MVSHSELRKLFYSADAVCFDVDSTVIREEGIDELAKICGVEDAVSEMTRRAMGGAVPFKAALTERLALIQPSREQVQRLIAEQPPHLTPGIRELVSRLQERNVQVFLISGGFRSIVEHVASKLNIPATNVFANRLKFYFNGEYAGFDETQPTAESGGKGKVIKLLKEKFHFKKIIMIGDGATDMEACPPADAFIGFGGNVIRQQVKDNAKWYITDFVELLGELEE
binding [5]: binds
binding [6]: binds
